Values joined by “and” are separate entries in the source; they are usually repeats but may differ in a detail not shown here. Equal values may be shown once. Where a name gives a salt, the structure may show the parent alone. ± gives the standard deviation of the averaged measurements. Some of the results follow. Baselines shift from plate to plate; read single values as rough.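 Primary human stellate myofibroblasts activated in culture; inactivation shown by regained lipid droplets. Readout: fraction of Hoechst-counted cells exceeding a per-plate Bodipy threshold, duplicate wells, each plate with DMSO negative and nortriptyline positive controls. Hits: control-normalized score beyond the plate's top-tenth-percentile nortriptyline wells, or among its three best wells. Final well concentrations unstated.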
Tested on: primary human hepatic stellate cells (donor 1)
Experiment: percent Bodipy-positive cells; higher = more lipid droplet accumulation
Settings: 48 h
Description: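 Primary lipid accumulation screen in primary human hepatic stellate cell myofibroblasts (donor 1, passage 8) in 384-well plates. 100 nL of library compound was pin-transferred into 30 µL medium in duplicate, and cells were treated for 48 h. The 'Scaled' score combines distance from plate baseline, toxicity and reproducibility penalties, and is normalised to nortriptyline (positive) and DMSO (negative) controls on each plate. A hit is defined as scaled >0.85 or among the top 3 wells per plate.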

[1] = library stock concentration: 1 mM
[2] = library stock concentration: 3.33 mM
[3] = library stock concentration: 10 mM
[4] = library stock concentration: 6.8 mM
[5] = library stock concentration: 80 uM
[6] = library stock concentration: 400 uM
[7] = library stock concentration: 2 mM

CC(=O)c1ncc([C@@H](O)[C@H](O)[C@H](O)CO)[nH]1 [2-Acetyl-5-tetrahydroxybutyl Imidazole]
percent Bodipy-positive cells [1]: 11.3 ± 1%

CC(C)OC(=O)[C@H](C)N[P@](=O)(OC[C@H]1O[C@@H](n2ccc(=O)[nH]c2=O)[C@](C)(F)[C@@H]1O)Oc1ccccc1 [Sofosbuvir (PSI-7977, GS-7977)]
percent Bodipy-positive cells [2]: 9.23 ± 4.5%
percent Bodipy-positive cells [3]: 16.2 ± 7.3%

Clc1cnccn1 [2-Chloropyrazine]
percent Bodipy-positive cells: 11.7 ± 0.14%

Nc1nc2c(ncn2[C@@H]2O[C@H](CO)[C@@H](O)[C@H]2O)c(=O)[nH]1 [Guanosine]
percent Bodipy-positive cells [2]: 10.9 ± 1.3%
percent Bodipy-positive cells [3]: 26.9 ± 3.8%

CC(O)C(=O)O.CC(O)C(=O)O.CN1CCN(c2ccc3nc(-c4c(N)c5c(F)cccc5[nH]c4=O)[nH]c3c2)CC1 [Dovitinib (TKI-258) Dilactic Acid]
percent Bodipy-positive cells [2]: 95.69 ± 0.46%

CCCCCC(=O)CC[C@@H]1[C@@H](CCCCCCC(=O)O)[C@@H](O)C[C@H]1O [13,14-dihydro-15-keto Prostaglandin F1.alpha.]
percent Bodipy-positive cells [1]: 19.5 ± 3.5%

Cc1cc2c(cc1S(N)(=O)=O)S(=O)(=O)CCC2 [Meticrane]
percent Bodipy-positive cells: 21.1 ± 0.72%

CCn1c2ccccc2c2cc(Nc3ccnc(NCCCN4CCOCC4)n3)ccc21
percent Bodipy-positive cells [2]: 99.53 ± 0.66%
percent Bodipy-positive cells [3]: 98.6 ± 2%

c1ccc(C(OC2CCN(CCCc3nn[nH]n3)CC2)c2ccccc2)cc1
percent Bodipy-positive cells [1]: 20.1 ± 4.4%

CCCCCCc1ccc(O)cc1O.Nc1c2ccccc2nc2ccccc12 [Acrisorcin]
percent Bodipy-positive cells (library stock concentration: 5.1 mM): 72.6 ± 8.4%
percent Bodipy-positive cells [3]: 88.2 ± 1.6%

O=C1[C@H](Cc2ccc(O)cc2)N2C(=O)CCN(C(=O)NCc3ccccc3)[C@H]2CN1Cc1cccc2ccccc12
percent Bodipy-positive cells [2]: 15.4 ± 0.76%
percent Bodipy-positive cells [3]: 44 ± 3.2%

CC/C(=C\C(=N\O)C(N)=O)C(C)[N+](=O)[O-] (configuration not stated)
percent Bodipy-positive cells [1]: 9.07 ± 1.2%

CCCc1ccc(C(=O)Oc2ccc(C#N)cc2)cc1
percent Bodipy-positive cells [3]: 27 ± 2.7%

CCCCc1ccc(N=CNO)c(C)c1
percent Bodipy-positive cells [1]: 6.02 ± 0.67%

COC(=O)Nc1nc2cc(C(=O)c3ccccc3)ccc2[nH]1 [Mebendazol]
percent Bodipy-positive cells [4]: 26 ± 6%

COC(=O)Nc1nc2cc(C(=O)c3ccccc3)ccc2[nH]1 [Mebendazole]
percent Bodipy-positive cells: 39.6 ± 8.5%
percent Bodipy-positive cells [4]: 36.7 ± 9.7%
percent Bodipy-positive cells [3]: 61.4% and 58.1%

CC1(C)S[C@@H]2[C@H](NC(=O)[C@H](NC(=O)N3CCNC3=O)c3ccccc3)C(=O)N2[C@H]1C(=O)O [Azlocillin sodium salt]
percent Bodipy-positive cells: 9.97 ± 3%
percent Bodipy-positive cells [2]: 13.7 ± 5.5%
percent Bodipy-positive cells [3]: 22.4 ± 2.7%

CC1(C)S[C@@H]2[C@H](NC(=O)[C@H](NC(=O)N3CCNC3=O)c3ccccc3)C(=O)N2[C@H]1C(=O)O [Azlocillin sodium]
percent Bodipy-positive cells [3]: 36.5 ± 13%

N#CC(=Cc1ccc2[nH]ccc2c1)C(N)=C(C#N)C#N
percent Bodipy-positive cells (library stock concentration: 19.3 mM): 65.4 ± 3.8%

NC(=O)c1cc[n+](CC2=C(C(=O)O)N3C(=O)[C@@H](NC(=O)[C@@H](c4ccccc4)S(=O)(=O)[O-])[C@H]3SC2)cc1 [Cefsulodin sodium]
percent Bodipy-positive cells (library stock concentration: 3.6 mM): 15.1 ± 7%

CC(C)c1ccc2oc3nc(N)c(C(=O)O)cc3c(=O)c2c1
percent Bodipy-positive cells [3]: 5.26 ± 4.4%

CC#CCOC(=O)c1c(C)nc2sc3c(c2c1N)CCC(O)C3 (configuration not stated)
percent Bodipy-positive cells [3]: 91.7 ± 1.6%

Cc1cn([C@H]2O[C@@H](CO)[C@H](O)[C@H]2F)c(=O)[nH]c1=O [Clevudine]
percent Bodipy-positive cells [2]: 8.17 ± 2.4%
percent Bodipy-positive cells [3]: 9.6 ± 2.6%

Cc1cn(C2C=CC(CO)O2)c(=O)[nH]c1=O (configuration not stated) [2',3'-didehydro-3'-deoxythymidine]
percent Bodipy-positive cells [3]: 36.4 ± 6%

NC1(C(=O)N[C@@H](CCO)c2ccc(Cl)cc2)CCN(c2ncnc3[nH]ccc23)CC1
percent Bodipy-positive cells [5]: 3.17 ± 0.84%
percent Bodipy-positive cells [6]: 3.01 ± 1.4%
percent Bodipy-positive cells [7]: 4.45 ± 0.59%
percent Bodipy-positive cells [2]: 21.5 ± 6.8%
percent Bodipy-positive cells [3]: 28.3% and 25%

CCCCCC(O)C=CC1C(O)CC(=O)C1CC=CCCCC(=O)O (configuration not stated) [8-iso Prostaglandin E2]
percent Bodipy-positive cells [1]: 13.7 ± 5.1%

CC(CCc1ccccc1)NCC(O)c1ccc(O)c(C(N)=O)c1 (configuration not stated) [Labetalol hydrochloride]
percent Bodipy-positive cells: 48.3 ± 2.2%
percent Bodipy-positive cells [3]: 66.3% and 49.1%

CC(CCc1ccccc1)NCC(O)c1ccc(O)c(C(N)=O)c1 (configuration not stated)
percent Bodipy-positive cells [3]: 49.25 ± 0.48%

CC(CCc1ccccc1)NCC(O)c1ccc(O)c(C(N)=O)c1 (configuration not stated) [Labetalol HCl]
percent Bodipy-positive cells [2]: 17.1 ± 3.4%
percent Bodipy-positive cells [3]: 66 ± 6.8%

CCOC(=O)[C@H](CCc1ccccc1)N[C@@H](C)C(=O)N1Cc2ccccc2C[C@H]1C(=O)O [Quinapril HCl]
percent Bodipy-positive cells: 10.2 ± 2%
percent Bodipy-positive cells [2]: 11.88 ± 0.082%
percent Bodipy-positive cells [3]: 9.99 ± 2.9%

CCOC(=O)[C@H](CCc1ccccc1)N[C@@H](C)C(=O)N1Cc2ccccc2C[C@H]1C(=O)O
percent Bodipy-positive cells [3]: 27.7 ± 4.8%

CCOC(=O)[C@H](CCc1ccccc1)N[C@@H](C)C(=O)N1Cc2ccccc2C[C@H]1C(=O)O [Quinapril hydrochloride]
percent Bodipy-positive cells [3]: 40.7 ± 18%

CC1CC(OC(=O)C(O)c2ccccc2)CC(C)(C)C1 (configuration not stated) [Cyclandelate]
percent Bodipy-positive cells [2]: 13.2 ± 6.8%
percent Bodipy-positive cells [3]: 49.2 ± 1.3%

CC1CC(OC(=O)C(O)c2ccccc2)CC(C)(C)C1 (configuration not stated)
percent Bodipy-positive cells [3]: 61.7 ± 1.7%

CCCCCC(=O)CCC1C(=O)C=CC1C/C=C\CCCC(=O)O (configuration not stated) [13,14-dihydro-15-keto Prostaglandin J2]
percent Bodipy-positive cells [1]: 7.45 ± 2.4%

CC[C@]1(O)C[C@@H]2CN(CCc3c([nH]c4ccccc34)[C@@](C(=O)OC)(c3cc4c(cc3OC)N(C=O)[C@H]3[C@@](O)(C(=O)OC)[C@H](OC(C)=O)[C@]5(CC)C=CCN6CC[C@]43[C@@H]65)C2)C1.O=S(=O)(O)O
percent Bodipy-positive cells [3]: 91.5 ± 4.5%

COc1ccc(C(Cl)=C(c2ccc(OC)cc2)c2ccc(OC)cc2)cc1 [Chlorotrianisene]
percent Bodipy-positive cells: 9.13 ± 0.44%
percent Bodipy-positive cells (library stock concentration: 5.3 mM): 5.06 ± 1%
percent Bodipy-positive cells [3]: 16.8 ± 6.7%

Cc1oncc1C(=O)Nc1ccc(C(F)(F)F)cc1 [Leflunomide]
percent Bodipy-positive cells: 11.4 ± 4%
percent Bodipy-positive cells [5]: 10.9 ± 0.72%
percent Bodipy-positive cells [6]: 11.7 ± 3.4%
percent Bodipy-positive cells [7]: 7.31 ± 0.94%
percent Bodipy-positive cells [2]: 13.4 ± 7.6%

O=c1[nH]c2cc(C(F)(F)F)c(N3CCOCC3)cc2n(CP(=O)(O)O)c1=O
percent Bodipy-positive cells [3]: 3.95 ± 1.1%

O=C(O)c1cccnc1Nc1cccc(C(F)(F)F)c1 [Niflumic acid]
percent Bodipy-positive cells: 24.78 ± 0.044%
percent Bodipy-positive cells [2]: 10.3 ± 5.3%
percent Bodipy-positive cells (library stock concentration: 7.1 mM): 6.46 ± 0.64%
percent Bodipy-positive cells (library stock concentration: 17.7 mM): 14.6 ± 3.6%

O=C(O)c1cccnc1Nc1cccc(C(F)(F)F)c1 [Niflumic Acid]
percent Bodipy-positive cells [1]: 8.47 ± 1.8%

CN(C)/N=N/c1[nH]cnc1C(N)=O [Dacarbazine]
percent Bodipy-positive cells: 36.8 ± 1.8%
percent Bodipy-positive cells [2]: 11.3 ± 6.8%
percent Bodipy-positive cells [3]: 16.8 ± 9%
percent Bodipy-positive cells (library stock concentration: 11 mM): 5.5% and 1.52%

CCCCCC[C@@H]([C@@H](C)O)n1cnc2c(N)ncnc21 [erythro-9-(2-Hydroxy-3-nonyl)adenine hydrochloride]
percent Bodipy-positive cells [3]: 51.8 ± 1.5%

CCCCC[C@H](O)C/C=C1/C(=O)C[C@H](O)[C@@H]1C/C=C\CCCC(=O)O [.DELTA.12-Prostaglandin D2]
percent Bodipy-positive cells [1]: 7.47 ± 2.7%

CC1C(=O)OC2C(O)C34C5CC(C(C)(C)C)C36C(OC(=O)C6O)OC4(C(=O)O5)C12O (configuration not stated) [Ginkgolide B]
percent Bodipy-positive cells [2]: 7.6055 ± 0.005%
percent Bodipy-positive cells [3]: 17.9% and 8.29%
